{"source": "PubChem BioAssay AID1224830 (NIAID, 2016)", "screen": "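Host factors that control LPS-induced TNF expression in human macrophages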 (primary screen)", "cells": "human THP-1 monocytic leukaemia cells, TNF dual-luciferase reporter clone, PMA-differentiated to macrophage-like cells", "reagent": "siRNA pool against human genes, 50 nM", "timing": "LPS for 4 h, given about 3 days after siRNA transfection", "treatment": "bacterial LPS (TLR4 ligand), 10 ng/ml", "measured": "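TNF firefly reporter luminescence divided by renilla, normalised to the plate median, then turned into a robust z-score for each replicate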", "direction": "TNF reporter robust z-score: higher = stronger TNF reporter response to LPS", "call rule": "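Each well counts as active if its z-score is over 2.8 or under -1.5; controls are left without a call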", "note": "The deposit covers about 18,000 reagents; this is an unselected part. In the full data, about 2,900 (16%) got an active call. 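Calls are made per well; low scores hint the gene aids the LPS response, high scores that it dampens it.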 Repeated entries: four replicate wells of each siRNA pool."}
{"gene symbol": "ELL3", "TNF reporter robust z-score": 0.21, "call": "inactive"}
{"gene symbol": "ELL3", "TNF reporter robust z-score": 0.81, "call": "inactive"}
{"gene symbol": "ELL3", "TNF reporter robust z-score": 0.86, "call": "inactive"}
{"gene symbol": "ELL3", "TNF reporter robust z-score": 0.05, "call": "inactive"}
{"gene symbol": "NOP9", "TNF reporter robust z-score": 0.98, "call": "inactive"}
{"gene symbol": "NOP9", "TNF reporter robust z-score": 2.23, "call": "inactive"}
{"gene symbol": "NOP9", "TNF reporter robust z-score": 1.02, "call": "inactive"}
{"gene symbol": "NOP9", "TNF reporter robust z-score": 1.94, "call": "inactive"}
{"gene symbol": "ITGB1", "TNF reporter robust z-score": -1.28, "call": "inactive"}
{"gene symbol": "ITGB1", "TNF reporter robust z-score": -0.34, "call": "inactive"}
{"gene symbol": "ITGB1", "TNF reporter robust z-score": -1.34, "call": "inactive"}
{"gene symbol": "ITGB1", "TNF reporter robust z-score": -0.82, "call": "inactive"}
{"gene symbol": "PGK2", "TNF reporter robust z-score": 2.09, "call": "inactive"}
{"gene symbol": "PGK2", "TNF reporter robust z-score": 0.37, "call": "inactive"}
{"gene symbol": "PGK2", "TNF reporter robust z-score": 1.8, "call": "inactive"}
{"gene symbol": "TIFA", "TNF reporter robust z-score": -0.32, "call": "inactive"}
{"gene symbol": "TIFA", "TNF reporter robust z-score": 1.18, "call": "inactive"}
{"gene symbol": "TIFA", "TNF reporter robust z-score": 0.63, "call": "inactive"}
{"gene symbol": "TIFA", "TNF reporter robust z-score": 0.14, "call": "inactive"}
{"gene symbol": "DMPK", "TNF reporter robust z-score": -0.14, "call": "inactive"}
{"gene symbol": "DMPK", "TNF reporter robust z-score": -0.8, "call": "inactive"}
{"gene symbol": "DMPK", "TNF reporter robust z-score": -1.51, "call": "active"}
{"gene symbol": "DMPK", "TNF reporter robust z-score": -0.44, "call": "inactive"}
{"gene symbol": "RBMY1F", "TNF reporter robust z-score": 0.16, "call": "inactive"}
{"gene symbol": "RBMY1F", "TNF reporter robust z-score": 0.06, "call": "inactive"}
{"gene symbol": "RBMY1F", "TNF reporter robust z-score": 0.84, "call": "inactive"}
{"gene symbol": "RBMY1F", "TNF reporter robust z-score": 1.27, "call": "inactive"}
{"gene symbol": "ARL5B", "TNF reporter robust z-score": -1.19, "call": "inactive"}
{"gene symbol": "ARL5B", "TNF reporter robust z-score": -1.84, "call": "active"}
{"gene symbol": "ARL5B", "TNF reporter robust z-score": -2, "call": "active"}
{"gene symbol": "ARL5B", "TNF reporter robust z-score": -0.66, "call": "inactive"}
{"gene symbol": "MRPL16", "TNF reporter robust z-score": -1, "call": "inactive"}
{"gene symbol": "MRPL16", "TNF reporter robust z-score": -0.79, "call": "inactive"}
{"gene symbol": "MRPL16", "TNF reporter robust z-score": -0.71, "call": "inactive"}
{"gene symbol": "MRPL16", "TNF reporter robust z-score": -0.53, "call": "inactive"}
{"gene symbol": "G3BP1", "TNF reporter robust z-score": 0, "call": "inactive"}
{"gene symbol": "G3BP1", "TNF reporter robust z-score": -0.28, "call": "inactive"}
{"gene symbol": "G3BP1", "TNF reporter robust z-score": -0.38, "call": "inactive"}
{"gene symbol": "G3BP1", "TNF reporter robust z-score": -0.57, "call": "inactive"}
{"gene symbol": "SLC19A4P", "TNF reporter robust z-score": 0.06, "call": "inactive"}
{"gene symbol": "SLC19A4P", "TNF reporter robust z-score": 0.99, "call": "inactive"}
{"gene symbol": "SLC19A4P", "TNF reporter robust z-score": 0.55, "call": "inactive"}
{"gene symbol": "MUC13", "TNF reporter robust z-score": -0.64, "call": "inactive"}
{"gene symbol": "MUC13", "TNF reporter robust z-score": -0.44, "call": "inactive"}
{"gene symbol": "MUC13", "TNF reporter robust z-score": -0.38, "call": "inactive"}
{"gene symbol": "MUC13", "TNF reporter robust z-score": -0.04, "call": "inactive"}
{"gene symbol": "MNDA", "TNF reporter robust z-score": -0.08, "call": "inactive"}
{"gene symbol": "MNDA", "TNF reporter robust z-score": -0.33, "call": "inactive"}
{"gene symbol": "MNDA", "TNF reporter robust z-score": -1.25, "call": "inactive"}
{"gene symbol": "MNDA", "TNF reporter robust z-score": 0.61, "call": "inactive"}
{"gene symbol": "AKR1B1", "TNF reporter robust z-score": 6.48, "call": "active"}
{"gene symbol": "AKR1B1", "TNF reporter robust z-score": -0.16, "call": "inactive"}
{"gene symbol": "AKR1B1", "TNF reporter robust z-score": 0.29, "call": "inactive"}
{"gene symbol": "AKR1B1", "TNF reporter robust z-score": 1.31, "call": "inactive"}
{"gene symbol": "ZNF654", "TNF reporter robust z-score": -0.66, "call": "inactive"}
{"gene symbol": "ZNF654", "TNF reporter robust z-score": 0.61, "call": "inactive"}
{"gene symbol": "ZNF654", "TNF reporter robust z-score": 0.94, "call": "inactive"}
{"gene symbol": "ZNF654", "TNF reporter robust z-score": -0.92, "call": "inactive"}
{"gene symbol": "TNFRSF1B", "TNF reporter robust z-score": -0.78, "call": "inactive"}
{"gene symbol": "TNFRSF1B", "TNF reporter robust z-score": -0.05, "call": "inactive"}
{"gene symbol": "TNFRSF1B", "TNF reporter robust z-score": -0.15, "call": "inactive"}
{"gene symbol": "TNFRSF1B", "TNF reporter robust z-score": -0.55, "call": "inactive"}

7 entries already listed, arranged by “TNF reporter robust z-score”, low to high:
{"gene symbol": "MUC13", "TNF reporter robust z-score": -0.64, "call": "inactive"}
{"gene symbol": "MUC13", "TNF reporter robust z-score": -0.44, "call": "inactive"}
{"gene symbol": "MUC13", "TNF reporter robust z-score": -0.38, "call": "inactive"}
{"gene symbol": "MNDA", "TNF reporter robust z-score": -0.33, "call": "inactive"}
{"gene symbol": "MNDA", "TNF reporter robust z-score": -0.08, "call": "inactive"}
{"gene symbol": "MUC13", "TNF reporter robust z-score": -0.04, "call": "inactive"}
{"gene symbol": "SLC19A4P", "TNF reporter robust z-score": 0.55, "call": "inactive"}
